Experimental findings from PubChem BioAssay AID248 (DTP/NCI, 2004) are described below.

This assay deals with L1210 leukemia ip in BDF1 mice, survival T/C. Briefly: NCI In Vivo Anticancer Drug Screen. Data for tumor model L1210 Leukemia (intraperitoneal) in B6D2F1 (BDF1) mice. The settings on record: higher T/C = longer survival.
Where [1] appears, read: T/C endpoint: mean survival time, dose: 100.0 mg/kg/injection, schedule: Q01DX009 (ip), vehicle: Klucel (hydroxypropylcellulose) (HPC).
The mark [2] stands for this setting: T/C endpoint: mean survival time, dose: 200.0 mg/kg/injection, schedule: Q01DX009 (ip), vehicle: Klucel (hydroxypropylcellulose) (HPC).
Setting [3] is: T/C endpoint: mean survival time, dose: 400.0 mg/kg/injection, schedule: Q01DX009 (ip), vehicle: Klucel (hydroxypropylcellulose) (HPC).
The mark [4] stands for this setting: T/C endpoint: mean survival time, dose: 400.0 mg/kg/injection, schedule: Q04DX003 (ip), vehicle: Klucel (hydroxypropylcellulose) (HPC).
Setting [5] is: T/C endpoint: mean survival time, dose: 400.0 mg/kg/injection, schedule: Q01DX001 (ip), vehicle: carboxymethylcellulose (CMC).
Setting [6] is: T/C endpoint: mean survival time, dose: 200.0 mg/kg/injection, schedule: Q01DX001 (ip), vehicle: saline.
Where [7] appears, read: T/C endpoint: mean survival time, dose: 93.0 mg/kg/injection, schedule: Q01DX001 (ip), vehicle: other.
Where [8] appears, read: T/C endpoint: mean survival time, dose: 400.0 mg/kg/injection, schedule: Q04DX003 (ip), vehicle: saline with Tween-80.

The list does not hold the whole screen: it is rich in T/C values a quarter to a half above the control, in often repeated tests (any T/C) and in doses without a T/C. Further doses and runs are listed elsewhere. T/C is the treated group as % of the vehicle group. Some doses have a count of surviving animals in place of a T/C: the source files T/C as zero there, which appears to mark a toxic dose or a test without result, not a measured value. Some survivor counts are full or nearly so, which does not show that the dose was tolerated: survival well below the control is almost never listed, so the zero probably covers shortened survival too. Counts of survivors are from the toxicity check (mostly the fifth day) where no day follows; animals may have died later. Schedules are NCI's codes, read here as Q, the interval in days (D) or hours (H), X, the number of doses. Some schedule codes hold Z or #, which are not explained here. Where survival is the endpoint, this PubChem deposit counts one and a half times the control or more as active, and values a quarter to a half above the control carry no call in these data; other NCI protocols may use other cut-offs. Some entries were tested several times; their values stand side by side, smallest first.

Take `O=C1C=C(N2CC2)C(=O)C(N2CC2)=C1N1CC1`: the T/C was 140 % of control (T/C endpoint: mean survival time, dose: 0.02 mg/kg/injection, schedule: Q01DX Z (ip), vehicle: saline); 145 % of control (T/C endpoint: mean survival time, dose: 0.05 mg/kg/injection, schedule: Q01DX Z (ip), vehicle: saline); 126 % of control (T/C endpoint: mean survival time, dose: 0.15 mg/kg/injection, schedule: Q01DX001 (ip), vehicle: saline); 127 and 135 % of control (T/C endpoint: mean survival time, dose: 50.0 micrograms/kg/injection, schedule: Q01DX015 (ip), vehicle: saline); 147 % of control (T/C endpoint: mean survival time, dose: 100.0 micrograms/kg/injection, schedule: Q01DX015 (ip), vehicle: saline); 135 % of control (T/C endpoint: mean survival time, dose: 150.0 micrograms/kg/injection, schedule: Q01DX009 (ip), vehicle: saline). In addition, the T/C (T/C endpoint: mean survival time, dose: 200.0 micrograms/kg/injection, schedule: Q01DX015 (ip), vehicle: saline) is 133 % of control. Also, the survivor count reads like this: (T/C endpoint: mean survival time, dose: 0.2 mg/kg/injection, schedule: Q01DX Z (ip), vehicle: saline) 6 of 6; (T/C endpoint: mean survival time, dose: 75.0 mg/kg/injection, schedule: Q01DX001 (ip), vehicle: saline) 0 of 6; (T/C endpoint: mean survival time, dose: 150.0 mg/kg/injection, schedule: Q01DX001 (ip), vehicle: saline) 0 of 6; (T/C endpoint: mean survival time, dose: 300.0 mg/kg/injection, schedule: Q01DX001 (ip), vehicle: saline) 0 of 6; (T/C endpoint: mean survival time, dose: 300.0 micrograms/kg/injection, schedule: Q01DX009 (ip), vehicle: saline) 5 of 6; (T/C endpoint: mean survival time, dose: 400.0 micrograms/kg/injection, schedule: Q01DX015 (ip), vehicle: saline) 6 of 6. Under “T/C endpoint: mean survival time, dose: 600.0 micrograms/kg/injection, schedule: Q01DX009 (ip), vehicle: saline”, the survivor count was 2 of 6.

For the compound `CCCCCCCCSCCOC(=O)C1C2CCC(O2)C1C(=O)O` (configuration not stated), the survivor count under setting [1] is given as 0 of 6, the survivor count under setting [2] is 0 of 6 and the survivor count under setting [3] is 0 of 6.

On to `Nc1nc(=S)c2[nH]c(N=Nc3ccc(S(=O)(=O)Nc4cnc5ccccc5n4)cc3)nc2[nH]1`, for which the survivor count is on record as 6 of 6 under setting [1], 3 of 6 under setting [2] and 1 of 6 under setting [3].

As for `O=[N+]([O-])c1ccc(S(=O)(=O)Oc2ccccc2)cc1`, the survivor count under setting [4] is 3 of 6.

On to `C/C=C/C(=O)Nc1ccccc1`, for which, under setting [5], the survivor count is given as 3 of 6.

As to `N/C(=N\O)c1cn(C2OC(CO)C(O)C2O)c2ncncc12` (configuration not stated), the T/C (T/C endpoint: mean survival time, dose: 50.0 mg/kg/injection, schedule: Q01DX009 (ip), vehicle: saline) was 126 % of control. In addition, the survivor count (T/C endpoint: mean survival time, dose: 200.0 mg/kg/injection, schedule: Q01DX005 (ip), vehicle: saline) is on record as 2 of 6.

Turning to `Cc1ccccc1NC(=O)C1CCCC1=O` (configuration not stated), the survivor count under setting [6] was 4 of 4.

`O=N[C@H]1C2CC([C@@H]1Cl)[C@@H]1CC=C[C@H]21` (some centres not stated): the survivor count under setting [5] was 4 of 4.

With `CC1=CCC(=C(C)C)C1C(=O)NC1CCCCC1` (configuration not stated), the survivor count under setting [6] is 0 of 6.

`COc1ccc([N+](=O)[O-])c2c(C)cc(=O)[nH]c12`: under setting [3], the survivor count was 2 of 6.

On to `CC(=O)c1cccc(NC2C(N)C(NC(=O)N(C)C)(C(C)O)C(C)(O)C2(O)COC(=O)c2c(C)cccc2O)c1` (configuration not stated), for which the survivor count is listed as 5 of 6 (T/C endpoint: mean survival time, dose: 6.0 mg/kg/injection, schedule: Q01DX015 (ip), vehicle: carboxymethylcellulose (CMC)) and 3 of 8 (T/C endpoint: median survival time, dose: 32.0 mg/kg/injection, schedule: Q04DX003 (ip), vehicle: acid diluted with saline).

For the compound `CN=C(N)Nc1ccc(C(=O)Oc2ccc([N+](=O)[O-])cc2)cc1`, the survivor count is listed as 5 of 6 (T/C endpoint: mean survival time, dose: 100.0 mg/kg/injection, schedule: Q01DX009 (ip), vehicle: water); 2 of 6 (T/C endpoint: mean survival time, dose: 200.0 mg/kg/injection, schedule: Q01DX009 (ip), vehicle: water); 0 of 6 (T/C endpoint: mean survival time, dose: 400.0 mg/kg/injection, schedule: Q01DX009 (ip), vehicle: water).

Regarding `O=C(CC(=O)c1ccccc1)Nc1ccccn1`, where the note is “T/C endpoint: mean survival time, dose: 400.0 mg/kg/injection, schedule: Q01DX001 (ip), vehicle: saline”, the survivor count is 1 of 6.

Take `COc1cc(C(=O)OC(C)CN2CCOCC2)cc(OC)c1OC` (configuration not stated): the survivor count (T/C endpoint: mean survival time, dose: 400.0 mg/kg/injection, schedule: Q01DX009 (ip), vehicle: saline) is 4 of 6.

In the case of `CC12CC3(C)CC(C)(C1)CC(NC(=O)N(CCCl)N=O)(C2)C3`, the T/C is, setting by setting: (T/C endpoint: mean survival time, dose: 10.0 mg/kg/injection, schedule: Q01DX001 (ip), vehicle: other) 137 % of control; (T/C endpoint: mean survival time, dose: 30.0 mg/kg/injection, schedule: Q01DX001 (ip), vehicle: other) 143 % of control; (T/C endpoint: mean survival time, dose: 40.0 mg/kg/injection, schedule: Q01DX001 (ip), vehicle: other) 148 % of control; (T/C endpoint: mean survival time, dose: 60.0 mg/kg/injection, schedule: Q01DX001 (ip), vehicle: other) 143 % of control; under setting [7], 149 % of control.

As to `O=C1C=CC(=O)N1c1ccc(Br)cc1Cl`, the survivor count is listed as 6 of 6 (T/C endpoint: mean survival time, dose: 6.25 mg/kg/injection, schedule: Q04DX003 (ip), vehicle: saline with Tween-80); 6 of 6 (T/C endpoint: mean survival time, dose: 12.5 mg/kg/injection, schedule: Q04DX003 (ip), vehicle: saline with Tween-80); 0 of 6 under setting [1]; 0 of 6 (T/C endpoint: mean survival time, dose: 100.0 mg/kg/injection, schedule: Q04DX003 (ip), vehicle: saline with Tween-80); 0 of 6 under setting [2]; 3 of 6 (T/C endpoint: mean survival time, dose: 200.0 mg/kg/injection, schedule: Q04DX003 (ip), vehicle: Klucel (hydroxypropylcellulose) (HPC)). Also, the survivor count reads like this: (T/C endpoint: mean survival time, dose: 200.0 mg/kg/injection, schedule: Q04DX003 (ip), vehicle: saline with Tween-80) 0 of 6; under setting [3], 0 of 6; under setting [4], 0 of 6; under setting [8], 0 of 6.

Regarding `COc1cc(/C=N\NC(=O)OC(C)(C)C)cc(OC)c1OC`, the survivor count under setting [8] is 6 of 6.

In the case of `Cc1cccc(S(=O)(=O)F)c1`, the survivor count (T/C endpoint: mean survival time, dose: 400.0 mg/kg/injection, schedule: Q04DX003 (ip), vehicle: acetone) is listed as 1 of 6.

Turning to `O=NN(CCCl)C(=O)NC1CSCSC1`, the T/C (T/C endpoint: mean survival time, dose: 3.5 mg/kg/injection, schedule: Q01DX001 (ip), vehicle: other) is 142 % of control. Further, the survivor count is 9 of 10 (T/C endpoint: mean survival time, dose: 62.0 mg/kg/injection, schedule: Q01DX001 (ip), vehicle: other); 3 of 10 under setting [7]; 4 of 10 (T/C endpoint: mean survival time, dose: 125.0 mg/kg/injection, schedule: Q01DX001 (ip), vehicle: other); 0 of 10 (T/C endpoint: mean survival time, dose: 187.0 mg/kg/injection, schedule: Q01DX001 (ip), vehicle: other); 0 of 10 (T/C endpoint: mean survival time, dose: 250.0 mg/kg/injection, schedule: Q01DX001 (ip), vehicle: other); 0 of 10 (T/C endpoint: mean survival time, dose: 375.0 mg/kg/injection, schedule: Q01DX001 (ip), vehicle: other). The survivor count (T/C endpoint: mean survival time, dose: 500.0 mg/kg/injection, schedule: Q01DX001 (ip), vehicle: other) was 0 of 10.

Turning to `CCC(=O)OC1(c2ccccc2)CCN(CCCC(=O)c2ccccc2)CC1`, the survivor count (T/C endpoint: mean survival time, dose: 80.0 mg/kg/injection, schedule: Q04DX003 (ip), vehicle: Klucel (hydroxypropylcellulose) (HPC)) is on record as 2 of 6.

Regarding `C/C(CCCCl)=N/N=C(N)N`, the survivor count by setting is: (T/C endpoint: mean survival time, dose: 115.0 mg/kg/injection, schedule: Q04DX003 (ip), vehicle: acetone) 2 of 6; (T/C endpoint: mean survival time, dose: 170.0 mg/kg/injection, schedule: Q01DX009 (ip), vehicle: saline with Tween-80) 0 of 6; (T/C endpoint: mean survival time, dose: 170.0 mg/kg/injection, schedule: Q04DX003 (ip), vehicle: acetone) 1 of 6; (T/C endpoint: mean survival time, dose: 255.0 mg/kg/injection, schedule: Q01DX009 (ip), vehicle: saline with Tween-80) 0 of 6.

For `CCCCOc1cc(C(=O)O)ccc1[N+](=O)[O-]`, under “T/C endpoint: mean survival time, dose: 200.0 mg/kg/injection, schedule: Q01DX009 (ip), vehicle: saline with Tween-80”, the survivor count is given as 6 of 6.

As to `Nc1ccccc1CSc1nc2nc[nH]c(=O)c2[nH]1`, the survivor count under setting [4] is given as 0 of 6.
